Experimental findings from PMC10837246 are described below.

Amino acid sequences for entries named in this document (tags omitted). A change or cut given only in a name is not applied to a line headed by its entry. Residues count along the entry.
UniProt Q62407, residues 855-3262: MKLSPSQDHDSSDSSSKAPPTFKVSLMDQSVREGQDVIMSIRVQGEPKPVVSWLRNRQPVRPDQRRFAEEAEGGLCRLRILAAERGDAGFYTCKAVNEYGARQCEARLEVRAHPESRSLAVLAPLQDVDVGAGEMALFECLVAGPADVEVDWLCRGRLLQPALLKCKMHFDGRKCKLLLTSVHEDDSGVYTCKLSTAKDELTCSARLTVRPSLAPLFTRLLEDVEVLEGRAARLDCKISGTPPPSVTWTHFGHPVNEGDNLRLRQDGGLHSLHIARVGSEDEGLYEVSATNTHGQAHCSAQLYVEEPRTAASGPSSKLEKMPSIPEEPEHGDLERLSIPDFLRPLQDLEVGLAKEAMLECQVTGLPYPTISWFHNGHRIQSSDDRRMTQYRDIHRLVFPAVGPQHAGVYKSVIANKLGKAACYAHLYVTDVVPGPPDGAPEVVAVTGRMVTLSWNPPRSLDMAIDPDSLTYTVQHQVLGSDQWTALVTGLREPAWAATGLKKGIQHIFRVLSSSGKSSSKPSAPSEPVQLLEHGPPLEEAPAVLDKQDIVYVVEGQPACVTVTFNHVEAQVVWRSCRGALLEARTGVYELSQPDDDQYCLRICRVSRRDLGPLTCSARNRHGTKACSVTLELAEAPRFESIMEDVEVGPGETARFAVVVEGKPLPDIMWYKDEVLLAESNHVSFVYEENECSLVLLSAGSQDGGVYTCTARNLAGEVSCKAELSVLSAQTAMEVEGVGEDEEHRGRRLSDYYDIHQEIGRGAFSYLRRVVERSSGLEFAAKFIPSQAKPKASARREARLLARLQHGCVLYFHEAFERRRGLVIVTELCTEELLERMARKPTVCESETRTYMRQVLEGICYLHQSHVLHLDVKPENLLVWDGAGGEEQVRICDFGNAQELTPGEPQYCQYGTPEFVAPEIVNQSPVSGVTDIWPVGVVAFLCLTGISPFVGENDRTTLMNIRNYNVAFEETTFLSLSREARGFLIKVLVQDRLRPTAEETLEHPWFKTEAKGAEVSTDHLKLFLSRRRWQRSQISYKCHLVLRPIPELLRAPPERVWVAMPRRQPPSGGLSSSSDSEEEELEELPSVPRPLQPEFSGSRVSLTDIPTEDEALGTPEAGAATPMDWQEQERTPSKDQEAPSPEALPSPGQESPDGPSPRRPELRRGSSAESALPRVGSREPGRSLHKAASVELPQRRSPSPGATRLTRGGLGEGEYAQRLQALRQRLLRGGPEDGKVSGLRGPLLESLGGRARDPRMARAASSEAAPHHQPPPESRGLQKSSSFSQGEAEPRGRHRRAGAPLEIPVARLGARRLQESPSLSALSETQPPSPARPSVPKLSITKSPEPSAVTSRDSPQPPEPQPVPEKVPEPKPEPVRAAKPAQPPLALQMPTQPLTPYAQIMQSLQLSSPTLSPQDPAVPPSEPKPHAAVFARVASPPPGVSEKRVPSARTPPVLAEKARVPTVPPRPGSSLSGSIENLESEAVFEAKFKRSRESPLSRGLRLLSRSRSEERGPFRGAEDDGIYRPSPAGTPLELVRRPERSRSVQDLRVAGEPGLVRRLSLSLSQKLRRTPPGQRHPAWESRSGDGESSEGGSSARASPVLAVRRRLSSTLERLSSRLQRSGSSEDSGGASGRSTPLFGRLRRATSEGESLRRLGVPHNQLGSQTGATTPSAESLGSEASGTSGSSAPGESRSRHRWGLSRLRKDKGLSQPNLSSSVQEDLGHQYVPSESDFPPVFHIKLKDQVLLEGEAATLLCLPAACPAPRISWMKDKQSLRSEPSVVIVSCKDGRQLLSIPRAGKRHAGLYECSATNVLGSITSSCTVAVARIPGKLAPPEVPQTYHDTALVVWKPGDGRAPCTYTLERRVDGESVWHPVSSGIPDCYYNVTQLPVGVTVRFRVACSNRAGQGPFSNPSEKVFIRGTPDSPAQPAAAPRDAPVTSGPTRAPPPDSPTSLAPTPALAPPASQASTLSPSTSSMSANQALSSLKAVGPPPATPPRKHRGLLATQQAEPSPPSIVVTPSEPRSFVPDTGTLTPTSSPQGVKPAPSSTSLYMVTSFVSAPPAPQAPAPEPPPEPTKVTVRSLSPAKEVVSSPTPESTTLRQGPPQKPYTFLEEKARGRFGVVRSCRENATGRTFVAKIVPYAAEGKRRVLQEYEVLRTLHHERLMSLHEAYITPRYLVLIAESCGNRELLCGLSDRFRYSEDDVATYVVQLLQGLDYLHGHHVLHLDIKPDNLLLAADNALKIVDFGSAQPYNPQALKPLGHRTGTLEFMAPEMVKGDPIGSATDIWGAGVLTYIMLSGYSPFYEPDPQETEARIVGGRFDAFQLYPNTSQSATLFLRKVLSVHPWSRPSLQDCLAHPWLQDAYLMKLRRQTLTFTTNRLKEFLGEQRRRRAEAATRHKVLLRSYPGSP
UniProt Q3UMR5, residues 50-350: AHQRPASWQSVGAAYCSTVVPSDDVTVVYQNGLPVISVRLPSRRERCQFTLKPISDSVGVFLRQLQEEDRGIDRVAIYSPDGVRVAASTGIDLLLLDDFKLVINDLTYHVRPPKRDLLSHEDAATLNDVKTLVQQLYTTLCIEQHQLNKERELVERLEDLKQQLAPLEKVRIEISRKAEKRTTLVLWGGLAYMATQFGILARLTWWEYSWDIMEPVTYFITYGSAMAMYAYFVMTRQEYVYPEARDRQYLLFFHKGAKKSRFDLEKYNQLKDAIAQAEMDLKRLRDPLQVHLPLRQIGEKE

Results are given in words; binding and its absence hold for the method and conditions named. Binding seen in cells or lysates may run through a third protein. Some results given as binding are weak or reduced against the parent protein; the word gives no strength.

For assay [1], the target named is Striated preferentially expressed gene (Speg), Spegα isoform (mouse (endogenous in adult mouse heart)) (UniProt Q62407). As to the kind of experiment: co-IP; adult mouse heart homogenised in Pierce IP lysis buffer with protease and phosphatase inhibitors; 1500 μg protein pre-cleared, incubated with Speg or PGC-1α antibody overnight at 4 °C, magnetic Protein-A Dynabeads 2 h at 4 °C; Western blot; normal rabbit IgG as control.

Assay [2] deals with T1, Peroxisome proliferator-activated receptor γ coactivator 1α (PGC-1α) (mouse (endogenous in adult mouse heart)) (UniProt O70343).
T1 sequence: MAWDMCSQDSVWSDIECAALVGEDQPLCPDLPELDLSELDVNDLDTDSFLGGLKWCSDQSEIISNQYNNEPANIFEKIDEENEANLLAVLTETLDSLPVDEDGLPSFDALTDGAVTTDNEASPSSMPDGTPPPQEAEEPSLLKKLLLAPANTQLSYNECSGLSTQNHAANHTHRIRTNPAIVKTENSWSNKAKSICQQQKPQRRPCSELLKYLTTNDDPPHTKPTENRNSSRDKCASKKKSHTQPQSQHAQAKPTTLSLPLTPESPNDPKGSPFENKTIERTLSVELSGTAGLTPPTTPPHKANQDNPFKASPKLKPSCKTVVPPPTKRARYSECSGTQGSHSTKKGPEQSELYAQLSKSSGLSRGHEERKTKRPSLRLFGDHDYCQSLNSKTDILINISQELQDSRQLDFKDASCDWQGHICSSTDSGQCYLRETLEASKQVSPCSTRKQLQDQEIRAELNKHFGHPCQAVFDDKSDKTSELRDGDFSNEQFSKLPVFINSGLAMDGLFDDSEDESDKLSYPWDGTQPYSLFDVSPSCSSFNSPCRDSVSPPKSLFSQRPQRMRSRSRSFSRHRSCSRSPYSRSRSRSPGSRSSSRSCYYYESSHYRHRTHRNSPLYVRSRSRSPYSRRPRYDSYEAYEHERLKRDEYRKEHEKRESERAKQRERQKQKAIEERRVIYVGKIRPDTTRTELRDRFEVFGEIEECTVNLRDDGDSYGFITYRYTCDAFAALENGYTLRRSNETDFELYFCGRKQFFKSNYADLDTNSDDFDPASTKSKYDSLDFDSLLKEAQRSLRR
The description is as above.

On to “Mitochondrial calcium uniporter (MCU) (from UniProt Q3UMR5 50-350)”, for which, in assay [1], the binding result was “no binding”. Regarding “Striated preferentially expressed gene (Speg), Spegα isoform (from UniProt Q62407-4 1-2408)”, the binding entry in assay [2] is listed as “binds”.
